Only a part is listed here, and it is no random draw. At the low end of the ranking the order means little.
target: SPI1 (UniProt P17947); assay: DAPPL (digital affinity profiling via proximity ligation, sequencing); conditions: 10 mM Tris-HCl pH 7.5, 50 mM NaCl, 1 mM DTT, 4% glycerol, room temperature, 30 min; GST-TFs on glutathione beads, 16-mer random dsDNA library, 0.1% …; high values mean tight binding; double strand, one strand shown; scale: fold enrichment (6-mer frequency, TF over GST control)

| Sequence | binding signal |
| --- | --- |
| GGCGAG | 0.509 |
| CTGAGA | 0.716 |
| ACGAGT | 0.766 |
| TAGAGG | 0.96 |
| GCAGTA | 0.841 |
| CGCCGT | 0.933 |
| GTGGGG | 0.627 |
| AGGATC | 0.887 |
| TTCGGA | 0.719 |
| AAGGAG | 0.344 |
| GGAGAG | 0.256 |
| GGCCCG | 0.845 |
| TATCGG | 0.767 |
| GGGCAA | 0.858 |
| GGGTCA | 0.68 |
| CCAAGG | 0.93 |
| GGGGGT | 0.491 |
| CAAGAC | 0.823 |
| CCGAGT | 0.881 |
| CAGTAG | 0.583 |

| Sequence | binding signal |
| --- | --- |
| CGTTGA | 0.743 |
| CAGGTG | 0.519 |
| GGTCGA | 0.718 |
| TCCGTG | 0.517 |
| CGGTGC | 0.677 |
| GTCGAT | 0.705 |
| CGAGAG | 0.369 |
| GTAAAG | 0.943 |
| CACCGT | 0.629 |
| GGACCA | 0.77 |
| GGGGGG | 0.534 |
| TCGGTT | 0.889 |
| CACGTC | 0.907 |
| GGTAAG | 0.689 |
| CAATCG | 0.879 |
| ACGCAT | 0.766 |
| CGTGAG | 0.113 |
| GCATAA | 0.788 |
| ATAGAG | 0.917 |
| CACAGT | 0.69 |

Random excerpt: 3 entries already listed, in no set order.

| Sequence | binding signal |
| --- | --- |
| GGTAAG | 0.689 |
| CAATCG | 0.879 |
| CGTGAG | 0.113 |
